Experimental data published in the supplement of paper PMC10849652.
Some of the results follow.

Chains of the proteins cited; added tags and fusions are not shown. Lines headed by an entry give the natural chain unless they say otherwise; changes in a name come on top.
UniProt Q9UNF0: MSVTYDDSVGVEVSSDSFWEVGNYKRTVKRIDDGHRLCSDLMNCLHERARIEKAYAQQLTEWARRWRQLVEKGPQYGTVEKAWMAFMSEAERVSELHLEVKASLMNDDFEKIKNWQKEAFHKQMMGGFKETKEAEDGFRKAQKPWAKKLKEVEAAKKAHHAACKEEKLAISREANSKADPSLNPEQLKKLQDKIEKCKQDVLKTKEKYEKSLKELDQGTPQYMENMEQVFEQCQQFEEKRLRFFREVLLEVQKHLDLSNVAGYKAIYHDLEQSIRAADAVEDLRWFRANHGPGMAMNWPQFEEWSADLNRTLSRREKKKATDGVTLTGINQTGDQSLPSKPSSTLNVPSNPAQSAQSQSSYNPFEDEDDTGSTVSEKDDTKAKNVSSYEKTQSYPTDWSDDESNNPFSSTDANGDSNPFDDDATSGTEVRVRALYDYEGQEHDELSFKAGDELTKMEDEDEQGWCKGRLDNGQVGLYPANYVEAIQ
UniProt Q9BUL8: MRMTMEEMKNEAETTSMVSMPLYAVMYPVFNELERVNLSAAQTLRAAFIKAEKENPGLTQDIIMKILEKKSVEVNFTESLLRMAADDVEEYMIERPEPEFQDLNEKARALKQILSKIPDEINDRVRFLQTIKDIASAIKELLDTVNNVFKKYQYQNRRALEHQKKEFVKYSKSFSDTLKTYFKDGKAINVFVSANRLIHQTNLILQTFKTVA
UniProt P49585: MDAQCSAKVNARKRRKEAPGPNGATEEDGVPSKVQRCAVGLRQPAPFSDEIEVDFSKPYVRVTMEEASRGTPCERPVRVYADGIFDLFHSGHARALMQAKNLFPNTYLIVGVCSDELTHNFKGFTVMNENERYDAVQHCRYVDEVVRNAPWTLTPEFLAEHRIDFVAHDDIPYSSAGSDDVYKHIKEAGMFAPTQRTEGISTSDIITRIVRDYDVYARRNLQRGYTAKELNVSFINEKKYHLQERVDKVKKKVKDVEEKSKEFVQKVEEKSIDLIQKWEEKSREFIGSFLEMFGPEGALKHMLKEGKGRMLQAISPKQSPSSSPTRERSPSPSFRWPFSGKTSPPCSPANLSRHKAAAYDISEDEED
UniProt O75914, whole entry, looked up: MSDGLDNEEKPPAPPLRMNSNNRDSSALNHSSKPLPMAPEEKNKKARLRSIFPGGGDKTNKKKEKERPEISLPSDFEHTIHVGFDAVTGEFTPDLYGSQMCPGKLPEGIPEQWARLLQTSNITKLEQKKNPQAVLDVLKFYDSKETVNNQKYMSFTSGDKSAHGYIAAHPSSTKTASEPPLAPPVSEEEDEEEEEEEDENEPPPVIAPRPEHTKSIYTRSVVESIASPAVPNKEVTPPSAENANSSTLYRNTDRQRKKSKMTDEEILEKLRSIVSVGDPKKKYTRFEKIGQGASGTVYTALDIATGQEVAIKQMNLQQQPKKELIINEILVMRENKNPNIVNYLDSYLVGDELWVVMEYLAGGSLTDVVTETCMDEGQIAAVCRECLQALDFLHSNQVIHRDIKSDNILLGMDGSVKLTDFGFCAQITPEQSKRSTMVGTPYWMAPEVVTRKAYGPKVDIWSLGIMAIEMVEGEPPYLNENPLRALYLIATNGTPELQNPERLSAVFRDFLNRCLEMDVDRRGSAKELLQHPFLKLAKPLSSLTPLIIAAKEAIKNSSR
UniProt O00764: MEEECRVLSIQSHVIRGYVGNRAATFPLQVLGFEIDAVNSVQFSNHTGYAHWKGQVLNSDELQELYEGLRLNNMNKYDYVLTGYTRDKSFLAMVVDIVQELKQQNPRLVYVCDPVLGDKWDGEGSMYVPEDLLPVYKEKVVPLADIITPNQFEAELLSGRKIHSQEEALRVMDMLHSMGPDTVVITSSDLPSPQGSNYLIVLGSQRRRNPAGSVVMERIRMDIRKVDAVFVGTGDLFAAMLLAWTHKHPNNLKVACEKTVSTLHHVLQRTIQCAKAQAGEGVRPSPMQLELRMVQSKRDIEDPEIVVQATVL
UniProt P43034: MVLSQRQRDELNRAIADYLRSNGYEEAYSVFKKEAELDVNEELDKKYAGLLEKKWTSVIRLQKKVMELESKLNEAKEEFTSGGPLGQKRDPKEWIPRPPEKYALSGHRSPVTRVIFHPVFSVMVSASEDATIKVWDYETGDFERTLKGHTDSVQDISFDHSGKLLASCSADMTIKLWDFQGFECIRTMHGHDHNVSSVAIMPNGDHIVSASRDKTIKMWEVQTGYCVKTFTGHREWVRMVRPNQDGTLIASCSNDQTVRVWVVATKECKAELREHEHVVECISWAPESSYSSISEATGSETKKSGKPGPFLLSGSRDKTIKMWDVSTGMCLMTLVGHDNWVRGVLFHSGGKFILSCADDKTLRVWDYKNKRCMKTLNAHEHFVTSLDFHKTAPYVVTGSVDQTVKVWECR
UniProt Q9HBH1: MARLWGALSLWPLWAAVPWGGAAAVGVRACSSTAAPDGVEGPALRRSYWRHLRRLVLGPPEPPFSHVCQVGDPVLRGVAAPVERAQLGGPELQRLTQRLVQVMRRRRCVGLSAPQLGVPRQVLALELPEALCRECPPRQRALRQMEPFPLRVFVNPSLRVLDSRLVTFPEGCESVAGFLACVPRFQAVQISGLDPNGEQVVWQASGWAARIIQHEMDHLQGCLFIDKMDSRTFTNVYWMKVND
UniProt Q9Y5K3: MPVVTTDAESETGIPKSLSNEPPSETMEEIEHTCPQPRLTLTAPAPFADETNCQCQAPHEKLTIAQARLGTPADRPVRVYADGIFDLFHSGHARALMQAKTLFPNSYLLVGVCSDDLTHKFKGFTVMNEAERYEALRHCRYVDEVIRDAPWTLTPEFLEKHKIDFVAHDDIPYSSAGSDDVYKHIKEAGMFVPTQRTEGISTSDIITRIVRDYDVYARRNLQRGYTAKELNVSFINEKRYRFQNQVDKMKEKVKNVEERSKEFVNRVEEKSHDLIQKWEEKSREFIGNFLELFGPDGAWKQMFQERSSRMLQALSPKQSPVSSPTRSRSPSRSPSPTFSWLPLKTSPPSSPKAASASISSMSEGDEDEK
UniProt Q15118, whole entry, looked up: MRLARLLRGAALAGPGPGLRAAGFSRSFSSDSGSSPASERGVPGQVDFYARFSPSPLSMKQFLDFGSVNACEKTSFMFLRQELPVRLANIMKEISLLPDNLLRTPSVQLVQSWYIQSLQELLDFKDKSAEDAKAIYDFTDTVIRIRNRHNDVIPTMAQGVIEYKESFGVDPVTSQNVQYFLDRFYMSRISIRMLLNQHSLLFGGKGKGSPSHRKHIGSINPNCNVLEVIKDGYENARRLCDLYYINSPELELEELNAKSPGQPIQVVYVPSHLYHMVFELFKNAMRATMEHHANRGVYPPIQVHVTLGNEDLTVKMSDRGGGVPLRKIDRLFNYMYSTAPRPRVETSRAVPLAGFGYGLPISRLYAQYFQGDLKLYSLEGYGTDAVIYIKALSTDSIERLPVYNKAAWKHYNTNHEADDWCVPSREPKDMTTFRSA
UniProt O75459: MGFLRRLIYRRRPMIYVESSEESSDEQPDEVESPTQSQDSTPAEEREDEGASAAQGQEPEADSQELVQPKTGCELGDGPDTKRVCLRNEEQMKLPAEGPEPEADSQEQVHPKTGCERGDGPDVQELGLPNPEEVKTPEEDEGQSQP
UniProt P05165: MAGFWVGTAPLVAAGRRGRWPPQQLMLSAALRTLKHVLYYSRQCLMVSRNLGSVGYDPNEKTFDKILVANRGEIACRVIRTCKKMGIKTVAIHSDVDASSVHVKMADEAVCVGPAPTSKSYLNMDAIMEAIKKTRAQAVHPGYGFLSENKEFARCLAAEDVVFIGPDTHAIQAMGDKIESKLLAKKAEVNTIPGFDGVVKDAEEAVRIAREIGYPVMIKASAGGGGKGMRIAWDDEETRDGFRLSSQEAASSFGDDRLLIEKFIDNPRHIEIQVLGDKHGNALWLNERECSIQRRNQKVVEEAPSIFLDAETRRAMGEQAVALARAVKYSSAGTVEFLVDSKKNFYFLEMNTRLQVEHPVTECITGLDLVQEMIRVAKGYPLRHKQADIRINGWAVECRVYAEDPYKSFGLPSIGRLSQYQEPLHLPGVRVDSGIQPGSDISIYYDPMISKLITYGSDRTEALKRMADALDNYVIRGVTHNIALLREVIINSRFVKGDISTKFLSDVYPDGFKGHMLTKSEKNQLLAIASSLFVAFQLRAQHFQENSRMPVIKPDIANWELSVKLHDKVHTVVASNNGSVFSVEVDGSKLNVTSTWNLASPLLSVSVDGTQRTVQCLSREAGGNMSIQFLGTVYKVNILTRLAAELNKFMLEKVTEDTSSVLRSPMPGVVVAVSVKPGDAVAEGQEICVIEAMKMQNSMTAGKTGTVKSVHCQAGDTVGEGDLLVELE
UniProt Q96AQ6: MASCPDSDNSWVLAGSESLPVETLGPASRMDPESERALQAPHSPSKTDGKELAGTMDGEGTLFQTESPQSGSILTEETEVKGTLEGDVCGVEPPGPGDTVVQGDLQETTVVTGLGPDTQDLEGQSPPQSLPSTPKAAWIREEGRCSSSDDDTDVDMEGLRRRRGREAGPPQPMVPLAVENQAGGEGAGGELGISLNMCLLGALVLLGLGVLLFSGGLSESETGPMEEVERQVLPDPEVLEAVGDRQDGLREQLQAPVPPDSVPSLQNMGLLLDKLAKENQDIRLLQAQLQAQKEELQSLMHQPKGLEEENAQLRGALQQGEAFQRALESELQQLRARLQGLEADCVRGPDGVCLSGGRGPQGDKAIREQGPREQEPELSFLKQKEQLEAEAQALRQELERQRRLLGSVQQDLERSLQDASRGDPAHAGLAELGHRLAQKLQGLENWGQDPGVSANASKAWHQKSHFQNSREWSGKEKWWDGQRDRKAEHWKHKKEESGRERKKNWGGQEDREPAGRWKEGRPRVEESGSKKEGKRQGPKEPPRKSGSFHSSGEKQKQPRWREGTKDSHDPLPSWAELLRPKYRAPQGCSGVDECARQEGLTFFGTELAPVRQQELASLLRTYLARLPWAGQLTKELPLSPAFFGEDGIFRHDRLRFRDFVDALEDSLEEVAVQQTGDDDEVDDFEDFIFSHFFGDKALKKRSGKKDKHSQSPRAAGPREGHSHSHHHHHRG
UniProt P0DJ07: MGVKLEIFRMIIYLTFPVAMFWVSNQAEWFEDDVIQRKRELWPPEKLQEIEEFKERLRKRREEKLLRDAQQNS
UniProt O14737: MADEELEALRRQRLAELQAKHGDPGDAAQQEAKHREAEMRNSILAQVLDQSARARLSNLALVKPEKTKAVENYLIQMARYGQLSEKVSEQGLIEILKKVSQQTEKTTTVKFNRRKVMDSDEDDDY
UniProt Q9H2J4: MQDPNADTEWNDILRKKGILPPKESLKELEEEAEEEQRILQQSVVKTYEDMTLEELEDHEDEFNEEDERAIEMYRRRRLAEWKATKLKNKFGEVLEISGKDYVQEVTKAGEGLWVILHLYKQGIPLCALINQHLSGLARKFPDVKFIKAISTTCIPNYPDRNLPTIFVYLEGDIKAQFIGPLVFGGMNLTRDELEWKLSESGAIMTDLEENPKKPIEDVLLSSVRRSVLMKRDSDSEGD
UniProt Q15365, whole entry, looked up: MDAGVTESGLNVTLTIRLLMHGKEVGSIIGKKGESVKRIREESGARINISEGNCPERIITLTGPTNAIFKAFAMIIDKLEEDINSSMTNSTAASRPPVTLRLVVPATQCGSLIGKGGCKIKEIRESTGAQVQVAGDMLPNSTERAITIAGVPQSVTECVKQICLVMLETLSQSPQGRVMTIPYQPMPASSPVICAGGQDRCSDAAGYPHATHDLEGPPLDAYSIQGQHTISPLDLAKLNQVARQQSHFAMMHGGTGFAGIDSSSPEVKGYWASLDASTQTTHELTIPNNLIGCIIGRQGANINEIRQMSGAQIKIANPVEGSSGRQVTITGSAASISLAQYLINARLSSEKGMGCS
UniProt O96011, whole entry, looked up, stated change not applied: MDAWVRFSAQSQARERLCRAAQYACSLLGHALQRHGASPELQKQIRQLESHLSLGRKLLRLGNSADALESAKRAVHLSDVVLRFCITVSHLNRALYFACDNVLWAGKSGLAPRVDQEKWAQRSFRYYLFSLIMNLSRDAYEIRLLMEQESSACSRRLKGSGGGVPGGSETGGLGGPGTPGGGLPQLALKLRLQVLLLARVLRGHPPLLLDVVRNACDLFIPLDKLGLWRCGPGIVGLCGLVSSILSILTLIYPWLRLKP
UniProt O75381, whole entry, looked up: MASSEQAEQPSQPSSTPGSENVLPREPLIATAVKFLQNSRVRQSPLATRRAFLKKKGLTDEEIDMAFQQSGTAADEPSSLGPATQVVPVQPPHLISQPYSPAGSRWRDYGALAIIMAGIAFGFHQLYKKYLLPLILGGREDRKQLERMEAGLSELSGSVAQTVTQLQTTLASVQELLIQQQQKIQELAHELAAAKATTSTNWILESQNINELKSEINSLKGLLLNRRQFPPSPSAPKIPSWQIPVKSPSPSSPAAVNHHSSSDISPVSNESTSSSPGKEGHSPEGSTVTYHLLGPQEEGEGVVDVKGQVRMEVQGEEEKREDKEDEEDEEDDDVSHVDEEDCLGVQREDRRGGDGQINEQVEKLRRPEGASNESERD

Legend:
Assay in all cases: log2 fold change, soluble protein after heating vs DMSO (PISA); higher = thermal stabilisation; K562 cells, 10 uM, 30 min; active = over 0.2 and 3.5 SD of the protein, either way, in both replicates (recomputed)
bafetinib = compound: Cc1ccc(NC(=O)c2ccc(CN3CC[C@H](N(C)C)C3)c(C(F)(F)F)c2)cc1Nc1nccc(-c2cncnc2)n1 [bafetinib]
Summary of the method: (§1)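 K562 cells at 2×10^6 cells/mL were given 10 μM compound for 30 min. Aliquots then went through 3 min of heating across 48°C-58°C, were pooled, and were extracted in PBS with 0.5% NP-40 at 4°C, and the supernatant after 21,000xg for 90 min was quantified by TMTpro 16plex LC-MS/MS with channel sums equalised. Thermal stability relative to control samples, from duplicates, is given as log2 fold change.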

[1] = compound: Cc1cccc(CC(=O)N2CCc3c2ccc(-c2cn(C)c4ncnc(N)c24)c3F)n1
Summary of the method: as §1

nilotinib = compound: Cc1cn(-c2cc(NC(=O)c3ccc(C)c(Nc4nccc(-c5cccnc5)n4)c3)cc(C(F)(F)F)c2)cn1 [nilotinib]
Summary of the method: as §1

[2] = compound: Cc1nc(Nc2n[nH]c3c2CN(C(=O)N[C@H](CN(C)C)c2ccccc2)C3(C)C)c2sccc2n1
Summary of the method: as §1

dasatinib = compound: Cc1nc(Nc2ncc(C(=O)Nc3c(C)cccc3Cl)s2)cc(N2CCN(CCO)CC2)n1 [dasatinib]
Summary of the method: as §1

[3] = compound: Cc1ncc(-c2ccnc(Nc3ccc(S(C)(=O)=O)cc3)n2)n1C(C)C
Summary of the method: as §1

[4] = compound: Cn1cc(-c2ccc3c(c2)CCN3C(=O)Cc2cccc(C(F)(F)F)c2)c2c(N)ncnc21
Summary of the method: as §1

[5] = compound: Cn1cc(-c2ccc3nnc(C(F)(F)c4ccc5ncccc5c4)n3n2)cn1
Summary of the method: as §1

tipifarnib = compound: Cn1cncc1[C@@](N)(c1ccc(Cl)cc1)c1ccc2c(c1)c(-c1cccc(Cl)c1)cc(=O)n2C [tipifarnib]
Summary of the method: as §1

mubritinib = compound: FC(F)(F)c1ccc(/C=C/c2nc(COc3ccc(CCCCn4ccnn4)cc3)co2)cc1 [mubritinib]
Summary of the method: as §1

Row | Target | log2 fold change (bafetinib) | log2 fold change [1] | log2 fold change (nilotinib) | log2 fold change [2] | log2 fold change (dasatinib) | log2 fold change [3] | log2 fold change [4] | log2 fold change [5] | log2 fold change (tipifarnib) | log2 fold change (mubritinib)
1 | PACSIN2 (UniProt Q9UNF0) | inactive: 0.058 | inactive: 0.1 | inactive: -0.12 | inactive: -0.192 | inactive: -0.249 | inactive: -0.093 | inactive: 0.069 | inactive: 0.03 | inactive: -0.018 | inactive: 0.189
2 | PACS1 (UniProt Q6VY07) | inactive: 0.008 | inactive: 0.02 | inactive: 0.051 | inactive: 0.038 | inactive: 0.018 | inactive: -0.018 | inactive: -0.006 | inactive: -0.098 | inactive: -0.002 | inactive: -0.021
3 | PDCD10 (UniProt Q9BUL8) | inactive: -0.015 | inactive: -0.009 | inactive: -0.042 | inactive: 0.217 | inactive: -0.175 | inactive: -0.026 | inactive: 0.018 | inactive: -0.017 | inactive: -0.056 | inactive: 0.009
4 | PDHA1 isoform 4 (UniProt P08559) | inactive: 0.245 | inactive: 0.131 | inactive: -0.018 | inactive: 0.085 | inactive: -0.005 | inactive: -0.056 | inactive: -0.162 | inactive: 0.047 | inactive: 0.102 | inactive: 0.137
5 | PCYT1A (UniProt P49585) | inactive: -0.142 | inactive: 0.035 | active: -1.47 | inactive: -0.129 | inactive: -0.185 | inactive: -0.04 | inactive: 0.033 | inactive: 0.001 | inactive: 0.006 | inactive: 0.176
6 | PAK3 isoform 3 (UniProt O75914) | inactive: 0.005 | inactive: 0.043 | inactive: 0.026 | inactive: -0.012 | inactive: 0.008 | inactive: 0.019 | inactive: 0.011 | inactive: -0.013 | inactive: -0.028 | inactive: 0.039
7 | PDXK (UniProt O00764) | inactive: -0.022 | inactive: 0.003 | inactive: 0.017 | inactive: -0.037 | inactive: 0.023 | inactive: -0.01 | inactive: -0.031 | inactive: -0.034 | inactive: -0.012 | inactive: 0.015
8 | PAFAH1B1 (UniProt P43034) | inactive: -0.037 | inactive: 0.007 | inactive: -0.016 | inactive: 0.016 | inactive: 0.009 | inactive: -0.002 | inactive: 0 | inactive: 0.011 | inactive: -0.006 | inactive: 0.018
9 | PDF (UniProt Q9HBH1) | inactive: -0.146 | inactive: -0.02 | inactive: -0.006 | inactive: -0.004 | inactive: -0.018 | inactive: 0.111 | inactive: -0.01 | inactive: 0.033 | inactive: 0.055 | inactive: -0.011
10 | PCYT1B (UniProt Q9Y5K3) | inactive: -0.193 | inactive: -0.068 | active: -1.28 | inactive: -0.105 | inactive: -0.142 | inactive: -0.089 | inactive: -0.024 | inactive: -0.037 | inactive: -0.053 | inactive: 0.168
11 | PDK1 (UniProt Q15118) | inactive: -0.032 | inactive: 0.026 | inactive: 0.059 | inactive: 0.02 | inactive: -0.069 | inactive: 0.014 | inactive: 0.104 | inactive: -0.029 | inactive: 0.058 | inactive: 0.023
12 | PEX12 (UniProt O00623) | inactive: -0.016 | inactive: -0.101 | inactive: -0.025 | inactive: 0.02 | inactive: -0.099 | inactive: -0.035 | inactive: 0.122 | inactive: 0.011 | inactive: -0.031 | inactive: 0.137
13 | PAGE1 (UniProt O75459) | inactive: -0.126 | inactive: -0.078 | inactive: 0.011 | inactive: -0.074 | inactive: 0.125 | inactive: -0.04 | inactive: -0.076 | inactive: -0.129 | inactive: 0.115 | inactive: 0.027
14 | PDXP (UniProt Q96GD0) | inactive: -0.031 | inactive: -0.039 | inactive: 0.002 | inactive: 0.01 | inactive: 0.021 | inactive: -0.03 | inactive: 0.04 | inactive: 0.036 | inactive: -0.022 | inactive: 0.031
15 | PARP1 (UniProt P09874) | inactive: 0.05 | inactive: -0.009 | inactive: -0.028 | inactive: -0.112 | inactive: -0.245 | inactive: 0.178 | inactive: 0.026 | inactive: 0.131 | inactive: -0.117 | inactive: 0.044
16 | PAK1 isoform 2 (UniProt Q13153) | inactive: -0.017 | inactive: 0.04 | inactive: 0.03 | inactive: 0.036 | inactive: -0.025 | inactive: -0.027 | inactive: 0.041 | inactive: 0.035 | inactive: -0.004 | inactive: 0.015
17 | PDE12 (UniProt Q6L8Q7) | inactive: -0.013 | inactive: 0.002 | inactive: -0.004 | inactive: 0.017 | inactive: -0.061 | inactive: -0.006 | inactive: 0.067 | inactive: 0.066 | inactive: -0.078 | inactive: 0.066
18 | PCCA (UniProt P05165) | inactive: 0.03 | inactive: -0.026 | inactive: 0.018 | inactive: 0.027 | inactive: -0.083 | inactive: -0.08 | inactive: 0.034 | inactive: 0.035 | inactive: -0.013 | inactive: 0.056
19 | PBXIP1 (UniProt Q96AQ6) | inactive: 0.032 | inactive: -0.034 | inactive: -0.004 | inactive: 0.024 | inactive: 0.062 | inactive: -0.005 | inactive: -0.025 | inactive: 0.085 | inactive: 0.018 | inactive: 0.016
20 | PDIA3 (UniProt P30101) | inactive: 0.1 | inactive: 0.025 | inactive: 0.017 | inactive: 0.047 | inactive: 0.029 | inactive: -0.033 | inactive: -0.051 | inactive: -0.019 | inactive: 0.119 | inactive: -0.123
21 | PCID2 (UniProt Q5JVF3) | inactive: 0.07 | inactive: 0.078 | inactive: -0.013 | inactive: -0.061 | inactive: -0.254 | inactive: -0.02 | inactive: 0.038 | inactive: -0.036 | inactive: -0.071 | inactive: 0.109
22 | PBX2 (UniProt P40425) | inactive: 0.019 | inactive: 0.042 | inactive: -0.057 | inactive: -0.071 | inactive: -0.202 | inactive: -0.034 | inactive: 0.013 | inactive: -0.091 | inactive: -0.116 | inactive: 0.027
23 | PET100 (UniProt P0DJ07) | inactive: -0.02 | inactive: -0.005 | inactive: 0.002 | inactive: 0.05 | inactive: -0.056 | inactive: -0.038 | inactive: 0.039 | inactive: 0.061 | inactive: 0.198 | inactive: 0.051
24 | PDCD5 (UniProt O14737) | inactive: 0.089 | inactive: -0.01 | inactive: 0.017 | inactive: 0.03 | inactive: 0.055 | inactive: -0.021 | inactive: 0 | inactive: 0.009 | inactive: 0.003 | inactive: 0.044
25 | PDCL3 (UniProt Q9H2J4) | inactive: -0.031 | inactive: 0.006 | inactive: -0.002 | inactive: -0.004 | inactive: 0.016 | inactive: -0.012 | inactive: 0.039 | inactive: 0.005 | inactive: -0.047 | inactive: 0.05
26 | PCBP1 (UniProt Q15365) | inactive: -0.007 | inactive: 0.033 | inactive: -0.057 | inactive: -0.086 | inactive: -0.111 | inactive: -0.026 | inactive: 0.064 | inactive: -0.004 | inactive: -0.119 | inactive: -0.011
27 | PEX11B (UniProt O96011) | inactive: -0.022 | inactive: 0.081 | inactive: 0.04 | inactive: 0.041 | inactive: -0.071 | inactive: -0.043 | inactive: 0.049 | inactive: 0.01 | inactive: -0.063 | inactive: 0.058
28 | PEX14 (UniProt O75381) | inactive: -0.026 | inactive: 0 | inactive: -0.01 | inactive: 0.004 | inactive: 0.047 | inactive: -0.004 | inactive: -0.012 | inactive: 0.042 | inactive: 0.003 | inactive: -0.031
29 | PDIA6 isoform 2 (UniProt Q15084) | inactive: -0.055 | inactive: -0.086 | inactive: 0 | inactive: -0.004 | inactive: 0.067 | inactive: -0.02 | inactive: -0.035 | inactive: 0.057 | inactive: 0.052 | inactive: 0.016

Already shown: an excerpt of the list.
Row | Target | log2 fold change (bafetinib) | log2 fold change [1] | log2 fold change (nilotinib) | log2 fold change [2] | log2 fold change (dasatinib) | log2 fold change [3] | log2 fold change [4] | log2 fold change [5] | log2 fold change (tipifarnib) | log2 fold change (mubritinib)
28 | PEX14 (UniProt O75381) | inactive: -0.026 | inactive: 0 | inactive: -0.01 | inactive: 0.004 | inactive: 0.047 | inactive: -0.004 | inactive: -0.012 | inactive: 0.042 | inactive: 0.003 | inactive: -0.031
29 | PDIA6 isoform 2 (UniProt Q15084) | inactive: -0.055 | inactive: -0.086 | inactive: 0 | inactive: -0.004 | inactive: 0.067 | inactive: -0.02 | inactive: -0.035 | inactive: 0.057 | inactive: 0.052 | inactive: 0.016
